Results as given in US11040976B2, “Substrate selective inhibitors of insulin-degrading enzyme (IDE) and uses thereof” (President and Fellows of Harvard College, priority 2015, dated 2021).
Where a chain is given by its changes, count along the chain named. Where “and” joins values, the source holds several entries; their conditions need not be identical. Identical values can stand only once. Some results were stated once for a whole list of compounds, not compound by compound. For some assays here: At least one read-out could not be matched to a standard name with certainty.

Assays:
human IDE Ala479Leu = target: T1, human IDE Ala479Leu (Homo sapiens, UniProt P14735, A479L); assay: Activity assay of mutant human IDE variant A479L with IDE inhibitors; type: biochemical; conditions: FIG. 8A and FIG. 8B
T1 construct: N-His6-tagged human IDE42-1019 construct was introduced in the expression plasmid pTrcHis-A; His6 (N); made in house; host or cells: E. coli Rosetta 2 (DE3) pLysS
T1 sequence (P14735 42-1019 A479L): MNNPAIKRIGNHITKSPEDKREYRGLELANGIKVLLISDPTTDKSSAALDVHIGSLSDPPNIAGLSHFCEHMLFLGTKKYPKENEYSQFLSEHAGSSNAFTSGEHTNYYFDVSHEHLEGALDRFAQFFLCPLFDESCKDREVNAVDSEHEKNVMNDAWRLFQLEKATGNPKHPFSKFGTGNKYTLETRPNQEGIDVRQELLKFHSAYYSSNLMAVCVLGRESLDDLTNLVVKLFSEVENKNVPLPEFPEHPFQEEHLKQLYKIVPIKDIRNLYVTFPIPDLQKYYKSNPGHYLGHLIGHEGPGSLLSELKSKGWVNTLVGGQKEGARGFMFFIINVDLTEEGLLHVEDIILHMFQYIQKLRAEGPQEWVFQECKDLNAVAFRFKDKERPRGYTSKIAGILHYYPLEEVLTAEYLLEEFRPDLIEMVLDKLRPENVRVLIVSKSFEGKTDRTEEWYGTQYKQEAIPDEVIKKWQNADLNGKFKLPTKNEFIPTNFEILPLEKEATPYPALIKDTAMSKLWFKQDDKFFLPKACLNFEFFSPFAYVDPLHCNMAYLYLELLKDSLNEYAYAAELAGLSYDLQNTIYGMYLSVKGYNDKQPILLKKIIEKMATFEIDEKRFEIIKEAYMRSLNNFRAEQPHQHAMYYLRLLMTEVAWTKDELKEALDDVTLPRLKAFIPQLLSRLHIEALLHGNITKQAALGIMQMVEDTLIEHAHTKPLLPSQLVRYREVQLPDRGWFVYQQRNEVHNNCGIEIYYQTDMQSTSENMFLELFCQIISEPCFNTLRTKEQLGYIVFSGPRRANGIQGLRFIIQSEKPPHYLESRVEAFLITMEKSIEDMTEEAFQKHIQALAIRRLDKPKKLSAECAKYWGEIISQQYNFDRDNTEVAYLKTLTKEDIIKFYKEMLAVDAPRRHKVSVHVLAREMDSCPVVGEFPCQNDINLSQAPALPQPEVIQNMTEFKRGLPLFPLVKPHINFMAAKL
Description: N-His6-tagged human IDE42-1019 construct was introduced in the expression plasmid pTrcHis-A (Invitrogen) using primers for uracil-specific excision reactions (USER) by Taq (NEB) and Pfu polymerases (PfuTurbo CX®, Agilent), as described in more detail in Maianti et al. (Nature (2014), 511, 94-98), which is incorporated by reference herein. The IDE gene was amplified with the primers 5′-[…]-dU-[…] (SEQ ID NO: 26) and 5′-[…] G-dU-[…] (SEQ ID NO: 27) (underlined sequences represent overhangs, and italics highlight the PCR priming sequence). Similarly, the pTrcHis-A vector was amplified for USER cloning with the primers 5′-[…]-dU-[…] (SEQ ID NO: 28) and 5′-[…]-dU-[…] (SEQ ID NO: 29). Mutant IDE constructs were generated by amplifying the full vector construct with USER cloning primers introducing a mutant overhang (see Table E6).
Recombinant His6-tagged proteins were purified by Ni(II)-affinity chromatography (IMAC sepharose beads, GE Healthcare®) according to the manufacturer's instructions. The cell pellets were re-suspended in pH 8.0 buffer containing 50 mM phosphate, 300 mM NaCl, 10 mM imidazole, 1% Triton X-100 and 1 mM tris(2-carboxyethyl)phosphine hydrochloride (TCEP), and were lysed by probe sonication for 4 minutes at <4° C., followed by clearing of cell debris by centrifugation at 10,000 g for 25 minutes at 4° C. […]

[1] = target: T2, recombinant human IDE42-1019 (Homo sapiens, UniProt P14735); assay: Protease assay with fluorogenic peptide substrate Mca-[…](Dnp)-OH; type: biochemical; conditions: fluorogenic peptide Mca-RPPGFSAFK(Dnp)-OH; plateau at high inhibitor concentration
T2 construct: recombinant human IDE42-1019 (R&D Systems); purchased R&D Systems
T2 sequence (P14735 42-1019): T1 sequence (P14735 42-1019 A479L) with L438A
Experimental: The proteases IDE42-1019, recombinant human IDE42-1019 (R&D Systems), neprilysin (R&D), and angiotensin-converting enzyme (R&D) were assayed using the fluorophore/quencher-tagged peptide substrate Mca-[…](Dnp)-OH (SEQ ID NO: 24) (R&D) according to the manufacturer's instructions and using the recommended buffers (fluorophore Mca=(7-methoxycourmarin-4-yl)acetyl and quencher Dnp=2,4-dinitrophenyl). For IDE the recommended buffer is 50 mM Tris pH 7.5, 1 M NaCl. The enzyme mixtures (48 μL) were transferred to a 96-well plate and combined with 2 μL of inhibitor in DMSO solutions, in 3-fold dilution series. The mixtures were allowed to equilibrate for 10 minutes and the enzymatic reaction was started by addition of substrate peptide in assay buffer (50 μL), mixed, and monitored on a fluorescence plate reader (excitation at 320 nm, emission at 405 nm). Similarly, thimet oligopeptidase (R&D) and neurolysin (R&D) were assayed using substrate Mca-PLGPK(Dnp)-OH (SEQ ID NO: 25) (R&D) according to the manufacturer's instructions and using the recommended buffers. Matrix metalloproteinase-1 (R&D) was activated and assayed according to the manufacturer's instructions with substrate Mca-KPLGL-Dpa-AR-NH2 (SEQ ID NO: 20) (R&D) (quencher DPA=N-3-(2,4,dinitrophenyl)-L-2,3-diaminopropionyl). All assay data points were obtained in duplicate.

Compound | increase in the IC50 for inhibition of proteolysis, Ala479Leu versus wild type IDE (human IDE Ala479Leu) | Imax (%) Proteolysis (inhibition maximum) [1]
Cc1cccc(-c2ccc([C@@H]3[C@@H](CO)N4CCCCN(S(=O)(=O)c5ccccc5C)C[C@@H]34)cc2)c1 [compound 297] | > 150 fold and 100-200 fold | 
Cc1ccccc1-c1ccc([C@H]2[C@H](CO)N3C(=O)CN(C(=O)NC4CCCC4)C[C@@H]23)cc1 [compound 504] |  | < 100% and 70%
